Test results: PMC10564737, “Structure-based design of a phosphotyrosine-masked covalent ligand targeting the E3 ligase SOCS2” (Nature Communications, 2023)
Several values for one entry are separate records, joined by “and”; a condition that tells them apart may be missing. Equal values may be shown once. The source gives many values for each of these; only a part stands here.

Chains of the proteins cited; added tags and fusions are not shown. Residues count along the entry.
UniProt O14508, 32-198: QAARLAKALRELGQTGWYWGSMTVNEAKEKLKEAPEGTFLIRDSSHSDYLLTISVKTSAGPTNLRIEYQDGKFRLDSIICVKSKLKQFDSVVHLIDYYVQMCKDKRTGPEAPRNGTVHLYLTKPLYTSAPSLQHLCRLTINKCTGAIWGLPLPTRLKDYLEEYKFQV

Biological target: T1, SBC2 (Homo sapiens, UniProt O14508)
T1 construct: SOCS2 (amino acids 32–198); His6 (N, cleaved yes); made in house; host or cells: E. coli BL21(DE3)
Assay: Covalent fluorescence polarization (FP) probe displacement assay
Format: binding
Text: With the specific covalent modification of Cys111 established, we decided to fully characterize MN551 as a covalent SOCS2 inhibitor. […] (Fig. 2g, h, Supplementary Fig. 9). Due to the covalent nature of the competing inhibitor, a time-dependent reduction in the fraction of protein-bound probe is observed. […] This value illustrates reasonable specificity for a covalent inhibitor, with nonetheless scope for future optimization. In addition to characterizing the kinetic covalency parameters, we have also assessed the stability of the MN551 by monitoring its reactivity (half-life >70 min) with reduced glutathione (GSH) (Supplementary Fig. 10)[35].
To monitor the SBC2-ligand binding kinetics we designed a fluorescein-labeled small-molecule probe - compound 26. The fluorescence polarization (anisotropy) of a threefold serial dilution of 50 µM SBC2 in 10 nM of the probe in 100 mM HEPES pH 7.5, 50 mM NaCl, 0.5 mM TCEP, 2% DMSO was measured to determine the KL (Supplementary Fig. 9A) (BMG Labtech PHERAstar – firmware v1.33). Protein titration and the curves were fitted using GraphPad Prism 9, using one-site fitting models to determine the probe binding constant, KL. Samples were run in triplicate in 384 well plates, using a total volume per well of 16 μL. The bound fraction of the probe is measure using the equation:1 Fb=Af−A/Af−Ab Where,
A time-dependent reduction in probe anisotropy were measured for a 2-fold serial dilution of […] compound MN551 in 10 nM probe +300 μM SBC2. To determine the initial reversible binding affinity, the initial bound fraction of the probe at time = 0, Fbo (the y-intercept in Fb v/s Time plot, Supplementary Fig. 9B) was plotted against MN551 concentration, and the obtained IC50 is then converted to Ki (Supplementary Fig. 9C)[17]. The slope from Fb versus time graph when divided by Fbo gives rate of covalency, kobs. A plot of kobs v/s MN551 concentration using Michaelis–Menten model of GraphPad Prism 9, provides the parameters kinact (maximum potential rate of inactivation) and KI (concentration of MN551 at which kobs = kinact/2) (Supplementary Fig. 9D, E).
The observed first-order rate constant, kobs is related to KI and kinact by the equation:2 kobs=kinactI/KI+I
At [I]«[KI] the above equation is converted to3 […]
The slope from the plot of kobs against concentration of MN551 gives us the covalent efficiency parameter kinact/KI (Supp Fig. 9F)[30],[33].

[1] = MN551 24.4141 nM; Cycle 6 (25 min)
[2] = MN551 24.4141 nM; Cycle 7 (30 min)
[3] = MN551 24.4141 nM; Cycle 8 (35 min)
[4] = MN551 24.4141 nM; Cycle 9 (40 min)
[5] = MN551 24.4141 nM; Cycle 10 (45 min)
[6] = MN551 24.4141 nM; Cycle 12 (55 min); n=1
[7] = MN551 24.4141 nM; Cycle 13 (60 min); n=1
[8] = MN551 24.4141 nM; Cycle 14 (65 min); n=1
[9] = MN551 24.4141 nM; Cycle 15 (70 min); n=1
[10] = MN551 24.4141 nM; Cycle 16 (75 min); n=1
[11] = MN551 24.694 nM, Cycle 8 (35 min)
[12] = MN551 24.694 nM, Cycle 9 (40 min)
[13] = MN551 24.694 nM, Cycle 10 (45 min)
[14] = MN551 24.694 nM, Cycle 11 (50 min)
[15] = MN551 24.694 nM, Cycle 15 (70 min), n=1
[16] = MN551 24.694 nM, Cycle 16 (75 min), n=1
[17] = MN551 24.694 nM, Cycle 17 (80 min), n=1
[18] = MN551 24.694 nM; Cycle 6 (25 min)
[19] = MN551 24.694 nM; Cycle 7 (30 min)
[20] = MN551 24.694 nM; Cycle 8 (35 min)
[21] = MN551 24.694 nM; Cycle 9 (40 min)
[22] = MN551 24.694 nM; Cycle 10 (45 min)
[23] = MN551 24.694 nM; Cycle 12 (55 min); n=1
[24] = MN551 24.694 nM; Cycle 13 (60 min); n=1
[25] = MN551 24.694 nM; Cycle 14 (65 min); n=1
[26] = MN551 24.694 nM; Cycle 15 (70 min); n=1
[27] = MN551 24.694 nM; Cycle 16 (75 min); n=1

`O=C(CCl)Nc1cccc(CNC(=O)[C@H](Cc2ccc(OP(=O)(O)O)cc2)NC(=O)Cc2ccc(F)cc2)c1` [MN551] was tested, and the Anisotropy (MN551 24.4141 nM, Cycle 16 (75 min), n=1) was 277.4 and 279.9 and 276.2, the Anisotropy (MN551 24.4141 nM, Cycle 17 (80 min), n=1) was 277.4 and 280.3 and 275.1 and the “Fb, fraction bound” value (MN551 24.4141 nM; Cycle 3 (10 min)) was 1.0193 and 1.044 and 1.0218. The “Fb, fraction bound” value (MN551 24.4141 nM; Cycle 4 (15 min)) was 1.024 and 1.018 and 1.009, the “Fb, fraction bound” value (MN551 24.4141 nM; Cycle 5 (20 min)) was 1.0167 and 1.074 and 1.0156 and the “Anisotropy data 485,520,520” value [1] was 276.5 and 277 and 278.2. The Fb [1] was 0.9674 and 0.9519 and 0.96, the “Fb, fraction bound” value [1] was 1.011 and 1.053 and 1.016 and the “Anisotropy data 485,520,520” value [2] was 277.4 and 276.1 and 277.7. The Fb [2] was 1.0218 and 0.9651 and 1.004, the “Fb, fraction bound” value [2] was 1.043 (2×) and 1.041 and the Anisotropy [3] was 284.3 and 285.2 and 282.4. For the same compound, the “Anisotropy data 485,520,520” value [3] was 275.6 and 275.1 and 278.3, the Fb [3] was 0.9854 and 0.947 and 1.002 and 1.046 and 1.043 and 1.026 and the Anisotropy [4] was 282.9 and 283.6 and 283.2. The “Anisotropy data 485,520,520” value [4] was 274.3 and 276.2 and 275, the Fb [4] was 0.997 and 0.9699 and 0.9765 and 1.019 and 1.044 and 1.045 and the Anisotropy [5] was 281.8 and 282.7 and 281.7. For the same compound, the “Anisotropy data 485,520,520” value [5] was 269.3 and 272.6 and 275.3, the Fb [5] was 0.9636 and 0.9483 and 0.9913 and 1.019 and 1.05 and 1.033 and the Anisotropy (MN551 24.4141 nM; Cycle 11 (50 min); n=1) was 272.7 and 273.6 and 274.3. For the same compound, the Anisotropy (MN551 24.4141 nM; Cycle 12 (55 min)) was 280.5 and 278.5, the Anisotropy [6] was 272.9 and 273.9 and 271.7 and the “Anisotropy based on Raw Data (485)” value [6] was 277.3 and 274.5. For the same compound, the Anisotropy [7] was 270.1 and 275.4 and 274.1, the “Anisotropy based on Raw Data (485)” value [7] was 277.8 and 278.4 and 276.1 and the Anisotropy [8] was 273.7 and 273.1 and 272.6. The “Anisotropy based on Raw Data (485)” value [8] was 277.5 and 278.3 and 275, the Anisotropy [9] was 270.4 and 271.1 and 269.6 and the “Anisotropy based on Raw Data (485)” value [9] was 276 and 277.2 and 274.7. For the same compound, the Anisotropy [10] was 266.7 and 270.7 and 269.7, the “Anisotropy based on Raw Data (485)” value [10] was 276.3 and 278.1 and 273.3 and the “Anisotropy data 485,520,520” value (MN551 24.4141 nM; Cycle 19 (90 min); n=1) was 275.5 and 278.4 and 275.6. The “Anisotropy data 485,520,520” value (MN551 24.4141 nM; Cycle 20 (95 min); n=1) was 273.7 and 275.4 and 275.5, the Fb (MN551 24.694 nM, Cycle 7 (30 min)) was 0.935 and 0.9067 and 0.9648 and the “Anisotropy based on Raw Data (485)” value [11] was 275.4 and 273.6 and 278.5. The Fb [11] was 0.924 and 0.9077 and 0.9353, the “Anisotropy based on Raw Data (485)” value [12] was 272.7 and 272.3 and 277 and the Fb [12] was 0.9065 and 0.9195 and 0.9578. For the same compound, the “Anisotropy based on Raw Data (485)” value [13] was 272.9 and 272.7 and 276.9, the Fb [13] was 0.9231 and 0.9311 and 0.9417 and the “Anisotropy based on Raw Data (485)” value [14] was 273.7 and 271 and 274.6. For the same compound, the Fb [14] was 0.9157 and 0.8942 and 0.9419, the Anisotropy (MN551 24.694 nM, Cycle 13 (60 min), n=1) was 280.3 and 275.9 and 276 and the Anisotropy (MN551 24.694 nM, Cycle 14 (65 min), n=1) was 277 and 276 and 275.3. The Anisotropy [15] was 277.6 and 276.3 and 273.5, the “Normalised anisotropy (0 nM MN551 = 1, free probe = 0)” value [15] was 1.048 and 1.016 and 1.001 and the Anisotropy [16] was 277.1 and 273 and 275.2. The “Normalised anisotropy (0 nM MN551 = 1, free probe = 0)” value [16] was 1.015 and 1.001 and 1.016, the Anisotropy [17] was 277.8 and 275.8 and 273.3 and the “Normalised anisotropy (0 nM MN551 = 1, free probe = 0)” value [17] was 1.048 and 1.02 and 1.027. For the same compound, the “Fb, fraction bound” value (MN551 24.694 nM; Cycle 3 (10 min)) was 1.041 and 1.042 and 1.045, the “Fb, fraction bound” value (MN551 24.694 nM; Cycle 4 (15 min)) was 1.0566 and 1.028 and 1.059 and the “Fb, fraction bound” value (MN551 24.694 nM; Cycle 5 (20 min)) was 1.038 and 1.036 and 1.067. For the same compound, the “Anisotropy data 485,520,520” value [18] was 273.6 and 273.1, the Fb [18] was 0.9876 and 0.9666 and 1.09 and the “Fb, fraction bound” value [18] was 1.046 (2×) and 1.032. The “Anisotropy data 485,520,520” value [19] was 276 and 267.3 and 272.9, the Fb [19] was 0.9659 and 0.9746 and 1.087 and the “Fb, fraction bound” value [19] was 1.025 and 1.014 and 1.031. For the same compound, the Anisotropy [20] was 281.7 and 282.2, the “Anisotropy data 485,520,520” value [20] was 275.6 and 267.5 and 271.6 and the Fb [20] was 0.9665 and 0.9912 and 1.126 and 1.049 and 1.0226 and 1.064. For the same compound, the Anisotropy [21] was 280.6 and 280 and 279.4, the “Anisotropy data 485,520,520” value [21] was 273.5 and 267.3 and 272.4 and the Fb [21] was 0.9516 and 0.998 and 1.103 and 1.047 and 1.002 and 1.032. For the same compound, the Anisotropy [22] was 282.7 and 279.9 and 278.3, the “Anisotropy data 485,520,520” value [22] was 271.7 and 265.8 and 269.2 and the Fb [22] was 0.9778 and 0.997 and 1.132 and 1.058 and 1.011 and 1.0207. The Anisotropy (MN551 24.694 nM; Cycle 11 (50 min); n=1) was 270.8 and 264.1 and 268.1, the Anisotropy [23] was 272.3 and 264.5 and 268.4 and the “Anisotropy based on Raw Data (485)” value [23] was 274 and 268.1 and 274.6. For the same compound, the Anisotropy [24] was 269 and 266.5 and 266.9, the “Anisotropy based on Raw Data (485)” value [24] was 270.5 and 266.2 and 270.8 and the Anisotropy [25] was 268.9 and 262.9 and 267.2. The “Anisotropy based on Raw Data (485)” value [25] was 272.4 and 266.4 and 271.6, the Anisotropy [26] was 268.1 and 260.7 and 266.2 and the “Anisotropy based on Raw Data (485)” value [26] was 269.8 and 269 and 273.3. The Anisotropy [27] was 267.2 and 260.6 and 266.3 and the “Anisotropy based on Raw Data (485)” value [27] was 269.6 and 266.3 and 271.3.
